# PubChem BioAssay AID2685 (National Center for Advancing Translational Sciences (NCATS), 2010)
# The other results are listed elsewhere or left out. Further columns of the screen follow, without active or inactive calls. Compounds called inactive in the main read-out are mostly missing here. Words in brackets tell the shape of the fitted curve; partial curves, single points and poor fits give uncertain potencies.
# Test: qHTS Assay for Lipid Storage Modulators in Drosophila S3 Cells;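 for cell number change: cells counted by Cell Tracker Red CMTPX staining in the red channel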
# Conditions: BODIPY lipid droplet fluorescence, 18-24 h; for cell number change: measured here: cell count max response, cells fed with added oleic acid
# Method in brief: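 Laser-scanning cytometry quantifies lipid droplet accumulation (500–530 nm total intensity; droplet/cell object ratio) in oleic acid-fed (400 uM added) Drosophila S3 cells treated with a concentration series. 20 uM Triacsin C defined 100% inhibition.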
# [1] = measured here: lipid fluorescence (Fed channel) AC50, cells fed with added oleic acid
# [2] = measured here: cell number channel AC50, cells fed with added oleic acid
SMILES,AC50 [1],cell number change [%],AC50 [2]
O=C(NCc1ccccc1F)c1ccc(S(=O)(=O)N2CCCCCC2)cc1,"1.16 µM [falling, partial curve, poor fit]",–,–
O=C(CC1(O)C(=O)Nc2cc(Cl)cc(Cl)c21)c1ccncc1 (configuration not stated),"29.1 µM [falling, single point]",-19.1,–
Cc1cc(C)n(-c2nc3ccccc3c(=O)n2OCC(=O)OCc2ccccc2)n1,"4.11 µM [rising, single point]",0.323,–
CCOC(=O)N1CCN(c2cc(=O)n(-c3ccccc3Cl)c(=O)[nH]2)CC1,"1.46 µM [falling, full curve]",-31.5,"0.206 µM [falling, full curve]"
COc1ccc(S(=O)(=O)N2CCC(C(=O)NCc3cccnc3)CC2)cc1OC,"0.58 µM [rising, single point]",3.48,–
CC1CN(/C(=N\S(=O)(=O)c2ccccc2)c2ccccc2)CC(C)O1 (configuration not stated),"1.84 µM [rising, partial curve]",-2.69,–
COc1ccc(C(=O)NC(C)(C)C)cc1S(=O)(=O)N1CCCC1,–,-108,"20.6 µM [falling, partial curve]"
Cc1ccc(N=C2NC(=O)S/C2=C\c2ccco2)cc1,"29.1 µM [falling, single point]",-21.5,–
CCc1cccc2c(=O)c(C(=O)N3CCCCCC3)c[nH]c12,"0.82 µM [falling, full curve]",-133,"25.9 µM [falling, partial curve]"
CC(C)C(C(=O)Nc1nccs1)c1ccccc1 (configuration not stated),–,-30.3,"29.1 µM [falling, single point]"
Nc1ccccc1C(=O)NNc1ncc(C(F)(F)F)cc1Cl,–,3.21,–
O=C(Nc1ccc(F)cc1F)C1CCCN1S(=O)(=O)c1cccc2nsnc12 (configuration not stated),"0.731 µM [rising, full curve]",67,"25.9 µM [rising, partial curve, poor fit]"
COc1ccc(OC)c(C(c2nnnn2Cc2ccccc2)N2CCC(C(N)=O)CC2)c1 (configuration not stated),"1.84 µM [rising, partial curve, poor fit]",-12.1,–
CCOC1(OCC)C(c2ccc(Cl)cc2)C(C#N)(C#N)C1(OCC)OCC (configuration not stated),–,-45.9,"0.731 µM [falling, full curve]"
COc1ccc(N2CCN(C(=O)CNC(=O)c3ccccc3Cl)CC2)cc1,"29.1 µM [falling, single point]",-15.3,–
COCc1nnc(NC(=O)c2ccco2)s1,"10.3 µM [falling, partial curve]",0.195,–
COc1cccc(NC(=O)Nc2nc(SC)ns2)c1,–,-37.6,"11.6 µM [falling, partial curve]"
COC(=O)c1ccc(=O)n(-c2ccc(OC)cc2)c1,"2.31 µM [falling, full curve, poor fit]",0.696,–
C=CCOc1c(Br)cc(/C=N/NC(=O)Cc2ccc(C(F)(F)F)cc2[N+](=O)[O-])cc1OC,"18.4 µM [falling, single point]",-46,"13 µM [falling, partial curve]"

# Molecules listed so far that contain a carbonyl joined to an NH by a bond outside any ring (11):
SMILES,AC50 [1],cell number change [%],AC50 [2]
O=C(NCc1ccccc1F)c1ccc(S(=O)(=O)N2CCCCCC2)cc1,"1.16 µM [falling, partial curve, poor fit]",–,–
COc1ccc(S(=O)(=O)N2CCC(C(=O)NCc3cccnc3)CC2)cc1OC,"0.58 µM [rising, single point]",3.48,–
COc1ccc(C(=O)NC(C)(C)C)cc1S(=O)(=O)N1CCCC1,–,-108,"20.6 µM [falling, partial curve]"
CC(C)C(C(=O)Nc1nccs1)c1ccccc1 (configuration not stated),–,-30.3,"29.1 µM [falling, single point]"
Nc1ccccc1C(=O)NNc1ncc(C(F)(F)F)cc1Cl,–,3.21,–
O=C(Nc1ccc(F)cc1F)C1CCCN1S(=O)(=O)c1cccc2nsnc12 (configuration not stated),"0.731 µM [rising, full curve]",67,"25.9 µM [rising, partial curve, poor fit]"
COc1ccc(OC)c(C(c2nnnn2Cc2ccccc2)N2CCC(C(N)=O)CC2)c1 (configuration not stated),"1.84 µM [rising, partial curve, poor fit]",-12.1,–
COc1ccc(N2CCN(C(=O)CNC(=O)c3ccccc3Cl)CC2)cc1,"29.1 µM [falling, single point]",-15.3,–
COCc1nnc(NC(=O)c2ccco2)s1,"10.3 µM [falling, partial curve]",0.195,–
COc1cccc(NC(=O)Nc2nc(SC)ns2)c1,–,-37.6,"11.6 µM [falling, partial curve]"
C=CCOc1c(Br)cc(/C=N/NC(=O)Cc2ccc(C(F)(F)F)cc2[N+](=O)[O-])cc1OC,"18.4 µM [falling, single point]",-46,"13 µM [falling, partial curve]"

# Continued:

SMILES,AC50 [1],cell number change [%],AC50 [2]
CCOC(=O)c1nn(-c2ccc(Cl)cc2)cc1O,–,-6.72,"0.731 µM [falling, full curve]"
O=C(c1c[nH]c2ccccc12)N1CCN(Cc2ccccc2)CC1,–,21.8,–
O=C(Cn1c(C(=O)N2CCN(C3CCCCC3)CC2)cc2sccc21)c1ccccc1,–,13.7,"0.92 µM [rising, full curve, poor fit]"
O=S1(=O)CCOC[C@H](CC2CCCCC2)N1Cc1cccc(C(F)(F)F)c1,"3.26 µM [rising, partial curve, poor fit]",15,–
O=C(CSc1nnc(-c2ccccn2)o1)Nc1ccccc1Cl,–,10.5,–
C=CCNC(=O)c1cc(-c2ccccc2O)on1,"16.4 µM [falling, partial curve, poor fit]",-48.7,"0.366 µM [falling, partial curve, poor fit]"
Cc1ccc(Cn2nnc3c(=O)n(CC(=O)NCC4CCCO4)cnc32)cc1 (configuration not stated),"0.082 µM [rising, full curve]",–,–
CCOC(=O)c1[nH]c(C)c(C(=O)C(C)C)c1C,"13 µM [rising, partial curve]",15.6,"6.51 µM [rising, single point]"
CCc1[nH]nc2c1C(C1C=CCCC1)C(C#N)=C(N)O2 (configuration not stated),–,70.4,"29.1 µM [rising, single point]"
Cc1ccc2nc(SCC(=O)Nc3oc(C)c4c(C)n[nH]c(=O)c34)[nH]c2c1,"3.26 µM [rising, full curve]",10,"3.66 µM [rising, single point]"
Cc1cccnc1NC(=O)Nc1ccccc1,"29.1 µM [rising, partial curve, poor fit]",–,–
Cc1nc2ccc(NC(=O)c3ccc(Br)o3)cc2s1,–,-21.7,–
Cc1ccc(CC(=O)NCc2cccnc2)cc1,–,14.9,–
Oc1cccc(NC(=S)N=Nc2c(O)[nH]c3ccccc23)c1,"29.1 µM [falling, single point]",-46.7,"1.84 µM [falling, partial curve, poor fit]"
CC(=O)N1C(=O)C2(C(C#N)=C(N)Oc3n[nH]c(-c4ccccn4)c32)c2ccccc21 (configuration not stated),"0.92 µM [rising, partial curve]",-10.5,–
COc1cc(OC)c(OC)cc1CN1CCN(S(=O)(=O)c2ccc(F)cc2)CC1,–,58.6,"9.2 µM [rising, single point]"
C=CCNC(=O)CC(=O)N/N=C/c1ccc(C(=O)OC)cc1,"9.2 µM [rising, partial curve]",61.2,"8.2 µM [rising, partial curve]"
CCOC(=O)c1sc(NC(=O)COC(=O)C(CCSC)NC(C)=O)nc1C (configuration not stated),–,-12.1,"6.51 µM [falling, single point]"
Cc1c(NC(=O)c2c(F)c(F)c(F)c(F)c2F)c(=O)n(-c2ccccc2)n1C,"1.64 µM [falling, full curve, poor fit]",-20.8,–

SMILES,AC50 [1],cell number change [%],AC50 [2]
Cc1ccc(C(=O)N/N=C2\SCC(=O)N2c2cc(C)ccc2C)cc1,"13 µM [falling, partial curve]",-64.3,"11.6 µM [falling, partial curve]"
Cc1cc(C(=O)CSc2nnc(-c3cccc(F)c3)n2N)c(C)n1Cc1ccc2c(c1)OCO2,"0.517 µM [rising, full curve]",–,"0.517 µM [rising, full curve]"
COC(=O)c1cn(CCOc2ccccc2F)c2ccccc12,"3.66 µM [rising, full curve]",–,"5.17 µM [rising, single point]"
CCOCCCNS(=O)(=O)c1ccccc1,"14.6 µM [falling, partial curve]",-39.3,"16.4 µM [falling, single point]"
CC(C)NC(=O)COC(=O)/C=C/c1ccc(F)cc1,"0.058 µM [falling, full curve, poor fit]",-10.3,–
CC(OC(=O)c1cccnc1)C(=O)Nc1ccc2c(c1)OCO2 (configuration not stated),–,-1.91,"0.651 µM [falling, single point]"
CCc1noc(C)c1C(=O)OC(C)C(=O)NCc1ccc(OC)cc1 (configuration not stated),"29.1 µM [falling, single point]",-15.3,–
CCc1ccccc1Nc1nc2ccccc2n1C,"20.6 µM [rising, single point]",–,–
O=C(/C=C/c1ccc(Cl)cc1Cl)N1CCN(c2ccccc2[N+](=O)[O-])CC1,"2.31 µM [rising, full curve]",–,"2.06 µM [rising, partial curve]"
Cc1cc(O)ccc1Nc1nc(-c2cccs2)cs1,–,-10.7,"0.0058 µM [falling, full curve, poor fit]"
COc1ccc(C)cc1S(=O)(=O)N1CCN(C)CC1c1ccccc1 (configuration not stated),"23.1 µM [falling, partial curve, poor fit]",-37.5,"18.4 µM [falling, partial curve, poor fit]"
Cc1cc(N2CCOCC2)c2c(N)cc(C)c(C)c2n1,–,60.5,"2.59 µM [rising, full curve]"
CN1C(=O)C(C)(C)c2cc(S(=O)(=O)N3CCN(c4ccccc4)CC3)ccc21,"18.4 µM [falling, single point]",21,–
Cc1ccccc1C(=O)Nc1ccc(C(=O)N/N=C/c2ccc(O)c(Br)c2)cc1,–,-36.5,"29.1 µM [falling, single point]"
CN(C(=O)c1cc2c(s1)-c1ccccc1S(=O)(=O)C2)c1ccccc1F,"8.2 µM [rising, partial curve]",–,"0.517 µM [rising, full curve, poor fit]"
O=C1NC(NS(=O)(=O)c2ccc(Cl)cc2)(C(F)(F)F)C(=O)N1Cc1cccnc1 (configuration not stated),–,9.26,"0.146 µM [rising, full curve, poor fit]"
CN(C1=NC(=O)C(CC(=O)O)S1)c1ccc(O)cc1 (configuration not stated),"0.103 µM [rising, full curve, poor fit]",-2.23,"0.517 µM [rising, single point]"
NS(=O)(=O)c1ccc(NC(=O)Nc2cccc3ccccc23)cc1,"6.51 µM [rising, partial curve, poor fit]",23.8,"2.06 µM [rising, partial curve, poor fit]"

# Single records, from the list above.
# Cc1cc(O)ccc1Nc1nc(-c2cccs2)cs1 reads cell number change [%]: -10.7; AC50 [2]: 0.0058 µM [falling, full curve, poor fit]
# CN(C1=NC(=O)C(CC(=O)O)S1)c1ccc(O)cc1 (configuration not stated) reads AC50 [1]: 0.103 µM [rising, full curve, poor fit]; cell number change [%]: -2.23; AC50 [2]: 0.517 µM [rising, single point]
